The values that follow come from the supplement of paper PMC5949888.

Most values lie at the floor of the assay. Slopes are relative: functional sequences can read slightly below zero. A value given as a limit tells only on which side of the number the result lay.

In this data set the test system is Saccharomyces cerevisiae PS128 hsf1 delta, HSF1(1-493) fusion. Nature of the data set: growth estimate (transactivation domain function in HSF1 fusion, heat-shock survival) (a.u. (slope of normalised read count over time)); higher = stronger growth at 37°C, i.e. more transactivation activity. Conditions: library: random library.
For the substance WSVKVTALDERCWGTSSAT, the growth estimate was under -0.25.

For the substance MKRLDEPRAHG, the growth estimate is under -0.25. Next, RGD: under -0.25; ILDSRCGSLCM: under -0.25; GCRS: under -0.25.

As for TRVRCRSKGCLRPLLNRDGG, the growth estimate was under -0.25.

As to HKRGRQSRNVRVRSSSSVDT, the growth estimate was under -0.25.

Take AKGSGSLTYASVENF: the growth estimate is under -0.25. With GGVLLSAADYLLGLRQELRA the figure was under -0.25; with PARRSSIYQITNVSRG, under -0.25; with RGGGLSPRSGLFSPGTSVQ, under -0.25. With TLGR the figure was under -0.25. Next, QGPDLRCV: under -0.25; SPGDSS: under -0.25; QAGRNEVNRTL: under -0.25. In the case of SGCS, the growth estimate was under -0.25. As to LVSSRHLSARPEEVVDDGWS, the growth estimate was under -0.25.

As for ENYSSYYQPERTKPCNMTWV, the growth estimate was under -0.25. As to GLRDWYHGSGVWERMVKDAL, the growth estimate was under -0.25.

Take RENGSLVENWQLRDNQESPS: the growth estimate is under -0.25.

In the case of TRKVKQGVTRII, the growth estimate is under -0.25. Next, FGSPTWAFYDVAGDESVHTM: 0.137. With GSAGTRGLGG the figure was under -0.25; with GLSGSVVAVYLKFEVGTYKE, under -0.25; with LGWRVEVGDIT, under -0.25.

As to LRVWSRRRRFRYGTQLYLSW, the growth estimate was under -0.25. Turning to KCLH, the growth estimate was under -0.25. With LGDLLTQRGNNETKWPVGTE the figure was -0.185; with AHC, under -0.25; with GWPMLWIARS, under -0.25. As for IPRALIRRFMHRGKPYGSRP, the growth estimate was under -0.25. With KLALVTIT, the growth estimate is under -0.25. In the case of AIKVSRYPWI, the growth estimate is under -0.25. In the case of PYHRL, the growth estimate is under -0.25.

On to IQSLKMEIIRDAFNLHMVRV, for which the growth estimate is under -0.25. Turning to GPGVPTWDLVSRVDSGNGGR, the growth estimate was under -0.25. With GLCRYAIASRLLYTMKHQDG the figure was under -0.25; with GGFVWRRRLRVHIKLPLDED, under -0.25; with REHPSRPGGELFS, under -0.25.

On to FYRSPGVGICPAVA, for which the growth estimate was under -0.25. With MVSSTYISRCTAVHVEIPGY the figure was under -0.25. Next, IIGV: under -0.25; CSRLSSSINMLT: under -0.25; QKYLKINSDRKERETVHVFR: under -0.25. Next, IARYLRLEEYISGTPPTMWT: under -0.25; PPVCSGHVQDVREMLCSLTD: under -0.25. As for STR, the growth estimate was -0.227. Regarding ECM, the growth estimate was under -0.25. Next, HGHVGRVWLKPYHLP: under -0.25; SVIRKGSGGLNAQEWPAVCR: under -0.25. As to TSKTTSI, the growth estimate is under -0.25.

On to NLM, for which the growth estimate was under -0.25. Next, ITPLRMG: under -0.25; III: under -0.25; PFSRDPRAMRPSRKVHAELG: under -0.25. With QESTGKVRLGCWGSEEKRTT the figure was under -0.25; with YVYRDAHELSGAHRLSN, under -0.25. Consider TRWGRRLDERSGSRMEGIQT, for which the growth estimate was under -0.25. For HSLHVETDTKEAGSWHHILR, the growth estimate was under -0.25. Next, GHSKRKSLSLLVNTSLDRNK: under -0.25; RERNIRFI: under -0.25. Next, PFGCASLRWLSHRGYEEPPT: under -0.25; RVGPSSYSWTPSSLRRHKRA: under -0.25; RNEPLT: under -0.25.

Regarding TIFLYVEATRVEAQGALIPS, the growth estimate is under -0.25.

Consider DDAFFRGDNVPGRSRRTPWA, for which the growth estimate is under -0.25. For the substance RGRDRMFKLQGFVHTKGLAP, the growth estimate is under -0.25.

In the case of KISPLARRCTVLDERIGLGP, the growth estimate was under -0.25. Consider PPLQTHNAKCRKCKDSMRWG, for which the growth estimate is under -0.25. Next, LRSLKVLLYRGETRGPGLAP: under -0.25. With AAIGRFRAGVHYAARTATGS, the growth estimate is under -0.25. Turning to LLDLVT, the growth estimate was under -0.25.

Regarding LGLTPVTVRVATRSNNSQSH, the growth estimate was -0.245. Next, HGGGRVHLKLAKLIWGRVRP: under -0.25; MRKGGAAISVLAVMVPTVTK: under -0.25; ISGGRSKA: under -0.25.

MEI: the growth estimate was under -0.25. Take HWH: the growth estimate is under -0.25. With VYCSTLEARARSSSTSQLPD the figure was under -0.25; with QNINILFVGPWQHRPRGLRV, under -0.25.
